From the supplement of paper PMC6411743
± gives the standard deviation of the averaged measurements. The list shows a part of the results.

Tests used:
Test in all cases: NP40-soluble protein abundance relative to vehicle (solubility fold change) (ratio); higher = more soluble protein in presence of GTP
TTC1 = target: T1, TTC1 (UniProt Q99614)
T1 sequence (whole entry): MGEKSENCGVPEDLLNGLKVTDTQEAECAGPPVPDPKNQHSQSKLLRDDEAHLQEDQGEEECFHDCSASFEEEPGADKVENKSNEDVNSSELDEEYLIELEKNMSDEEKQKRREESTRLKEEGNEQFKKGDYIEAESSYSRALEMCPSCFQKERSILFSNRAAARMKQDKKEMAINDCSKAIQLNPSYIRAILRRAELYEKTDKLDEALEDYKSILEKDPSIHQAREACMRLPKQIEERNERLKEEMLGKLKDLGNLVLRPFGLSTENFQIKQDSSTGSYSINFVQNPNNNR
In short: (§1)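 In three independent experiments, Jurkat crude lysate made by Dounce homogenisation was treated for 10 min at room temperature and then 3 min at 37 °C with eight concentrations ranging from 0.1 to 10 mM. It was then solubilised with 0.8% NP40 plus benzonase for 60 min at 4 °C and ultracentrifuged. The supernatant was TMT-labelled for LC-MS/MS, and each value is the fold change against the detergent-processed vehicle for the same replicate, using vsn-normalised intensities.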

TXNDC17 = target: T2, TXNDC17 (UniProt Q9BRA2)
T2 sequence (whole entry): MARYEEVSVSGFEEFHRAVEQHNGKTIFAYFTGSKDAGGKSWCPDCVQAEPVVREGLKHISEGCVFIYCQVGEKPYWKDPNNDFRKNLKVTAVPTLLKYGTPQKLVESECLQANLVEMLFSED
In short: as §1

UTP14A = target: T3, UTP14A (UniProt Q9BVJ6)
T3 sequence (whole entry): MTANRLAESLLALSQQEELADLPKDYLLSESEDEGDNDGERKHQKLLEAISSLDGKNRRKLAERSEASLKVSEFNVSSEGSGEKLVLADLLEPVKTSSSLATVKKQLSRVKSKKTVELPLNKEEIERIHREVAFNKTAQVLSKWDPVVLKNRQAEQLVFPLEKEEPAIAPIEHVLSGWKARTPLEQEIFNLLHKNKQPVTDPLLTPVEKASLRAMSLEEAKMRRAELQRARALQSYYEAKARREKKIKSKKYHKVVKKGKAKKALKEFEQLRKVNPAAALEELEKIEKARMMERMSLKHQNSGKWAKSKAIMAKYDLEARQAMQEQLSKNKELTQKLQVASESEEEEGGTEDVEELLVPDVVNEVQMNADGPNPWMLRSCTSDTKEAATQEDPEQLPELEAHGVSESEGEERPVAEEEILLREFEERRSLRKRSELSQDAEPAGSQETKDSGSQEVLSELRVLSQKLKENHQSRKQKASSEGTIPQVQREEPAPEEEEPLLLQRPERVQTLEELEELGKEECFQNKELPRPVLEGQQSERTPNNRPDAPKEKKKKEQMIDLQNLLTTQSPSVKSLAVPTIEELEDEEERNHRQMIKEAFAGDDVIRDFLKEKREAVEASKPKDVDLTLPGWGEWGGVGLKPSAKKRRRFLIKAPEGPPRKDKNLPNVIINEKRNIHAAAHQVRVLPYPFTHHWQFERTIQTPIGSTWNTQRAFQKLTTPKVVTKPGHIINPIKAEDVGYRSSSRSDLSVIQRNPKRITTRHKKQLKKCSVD
In short: as §1

UniProt Q96KQ4 = target: T4, UniProt Q96KQ4
T4 sequence (whole entry): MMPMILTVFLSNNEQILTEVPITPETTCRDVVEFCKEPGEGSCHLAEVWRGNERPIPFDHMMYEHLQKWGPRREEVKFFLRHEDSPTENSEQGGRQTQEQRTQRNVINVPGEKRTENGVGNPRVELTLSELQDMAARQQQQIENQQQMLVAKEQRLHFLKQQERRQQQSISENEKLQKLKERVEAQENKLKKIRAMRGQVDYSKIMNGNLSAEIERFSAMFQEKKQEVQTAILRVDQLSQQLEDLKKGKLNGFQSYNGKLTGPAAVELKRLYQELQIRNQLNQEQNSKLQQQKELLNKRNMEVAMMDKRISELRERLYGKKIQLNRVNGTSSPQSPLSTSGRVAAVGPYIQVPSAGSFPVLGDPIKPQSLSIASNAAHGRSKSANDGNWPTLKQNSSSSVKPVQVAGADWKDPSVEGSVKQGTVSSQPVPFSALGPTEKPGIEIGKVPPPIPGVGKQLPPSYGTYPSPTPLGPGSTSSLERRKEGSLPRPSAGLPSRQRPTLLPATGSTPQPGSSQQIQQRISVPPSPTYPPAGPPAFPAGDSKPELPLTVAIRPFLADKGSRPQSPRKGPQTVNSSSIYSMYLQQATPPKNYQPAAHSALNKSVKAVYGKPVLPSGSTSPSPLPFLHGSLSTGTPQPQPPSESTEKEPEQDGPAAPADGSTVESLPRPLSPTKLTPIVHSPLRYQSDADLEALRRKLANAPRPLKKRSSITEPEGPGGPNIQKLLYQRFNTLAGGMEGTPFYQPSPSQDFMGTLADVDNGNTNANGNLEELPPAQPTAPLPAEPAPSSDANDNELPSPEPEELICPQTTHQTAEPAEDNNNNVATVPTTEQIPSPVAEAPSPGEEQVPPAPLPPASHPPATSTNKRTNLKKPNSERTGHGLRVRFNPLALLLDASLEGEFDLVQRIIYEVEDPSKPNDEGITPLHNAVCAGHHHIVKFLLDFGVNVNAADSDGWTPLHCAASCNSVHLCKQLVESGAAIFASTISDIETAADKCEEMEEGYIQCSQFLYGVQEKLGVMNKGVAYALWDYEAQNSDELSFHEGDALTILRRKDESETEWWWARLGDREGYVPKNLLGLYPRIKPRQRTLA
In short: as §1

UniProt Q99733-2 = target: T5, UniProt Q99733-2
T5 sequence (whole entry): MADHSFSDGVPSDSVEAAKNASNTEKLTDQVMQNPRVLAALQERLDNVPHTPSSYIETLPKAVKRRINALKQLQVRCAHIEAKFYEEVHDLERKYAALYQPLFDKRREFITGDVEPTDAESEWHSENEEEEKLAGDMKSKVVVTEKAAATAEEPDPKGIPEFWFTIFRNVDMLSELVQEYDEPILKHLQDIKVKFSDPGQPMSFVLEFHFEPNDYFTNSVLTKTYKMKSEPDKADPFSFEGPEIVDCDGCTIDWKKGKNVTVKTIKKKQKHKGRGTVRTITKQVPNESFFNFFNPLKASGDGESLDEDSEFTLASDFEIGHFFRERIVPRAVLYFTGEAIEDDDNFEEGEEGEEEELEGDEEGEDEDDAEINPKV
In short: as §1

[1] = target: T6, UniProt Q99757 and related entries
T6 sequence (whole entry): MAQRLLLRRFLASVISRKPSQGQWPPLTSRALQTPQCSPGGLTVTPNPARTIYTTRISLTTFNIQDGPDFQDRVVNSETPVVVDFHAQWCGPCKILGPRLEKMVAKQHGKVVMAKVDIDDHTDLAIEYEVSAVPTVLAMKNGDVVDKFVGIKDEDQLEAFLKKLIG
In short: as §1

[2] = target: T7, UniProt Q99808 and related entries
T7 sequence (whole entry): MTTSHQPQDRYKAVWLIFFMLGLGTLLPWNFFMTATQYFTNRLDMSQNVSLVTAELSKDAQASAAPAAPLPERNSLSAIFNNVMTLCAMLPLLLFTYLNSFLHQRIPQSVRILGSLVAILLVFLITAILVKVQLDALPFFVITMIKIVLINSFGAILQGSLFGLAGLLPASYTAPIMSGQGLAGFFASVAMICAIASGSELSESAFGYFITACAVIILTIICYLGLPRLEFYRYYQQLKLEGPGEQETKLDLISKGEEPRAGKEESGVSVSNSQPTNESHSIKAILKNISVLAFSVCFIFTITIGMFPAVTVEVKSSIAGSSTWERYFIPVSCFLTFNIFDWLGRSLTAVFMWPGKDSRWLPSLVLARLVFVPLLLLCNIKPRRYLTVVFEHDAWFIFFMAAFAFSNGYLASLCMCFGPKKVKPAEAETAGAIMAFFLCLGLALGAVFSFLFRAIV
In short: as §1

In the case of `Nc1nc2c(ncn2[C@@H]2O[C@H](COP(=O)(O)OP(=O)(O)OP(=O)(O)O)[C@@H](O)[C@H]2O)c(=O)[nH]1` [guanosine triphosphate], the NP40-soluble protein abundance (TTC1; concentration: 0.1mM) is reported as 0.88 ± 0.035, the NP40-soluble protein abundance (TTC1; concentration: 0.5mM) is reported as 0.871 ± 0.073 and the NP40-soluble protein abundance (TTC1; concentration: 1mM) is reported as 0.943 ± 0.02. For the same molecule, the NP40-soluble protein abundance (TTC1; concentration: 2mM) was 0.913 ± 0.075, the NP40-soluble protein abundance (TTC1; concentration: 4mM) was 0.893 ± 0.051 and the NP40-soluble protein abundance (TTC1; concentration: 6mM) was 0.897 ± 0.068. The NP40-soluble protein abundance (TTC1; concentration: 8mM) was 0.883 ± 0.083, the NP40-soluble protein abundance (TTC1; concentration: 10mM) was 0.904 ± 0.032 and the NP40-soluble protein abundance (TXNDC17; concentration: 0.1mM) was 0.875 ± 0.058. The NP40-soluble protein abundance (TXNDC17; concentration: 0.5mM) was 0.882 ± 0.095, the NP40-soluble protein abundance (TXNDC17; concentration: 1mM) was 0.862 ± 0.1 and the NP40-soluble protein abundance (TXNDC17; concentration: 2mM) was 0.793 ± 0.11. For the same molecule, the NP40-soluble protein abundance (TXNDC17; concentration: 4mM) was 0.743 ± 0.099, the NP40-soluble protein abundance (TXNDC17; concentration: 6mM) was 0.816 ± 0.13 and the NP40-soluble protein abundance (TXNDC17; concentration: 8mM) was 0.746 ± 0.1. For the same molecule, the NP40-soluble protein abundance (TXNDC17; concentration: 10mM) was 0.736 ± 0.092, the NP40-soluble protein abundance (UTP14A; concentration: 0.1mM) was 1.04 ± 0.052 and the NP40-soluble protein abundance (UTP14A; concentration: 0.5mM) was 1.02 ± 0.022. The NP40-soluble protein abundance (UTP14A; concentration: 1mM) was 1.15 ± 0.087, the NP40-soluble protein abundance (UTP14A; concentration: 2mM) was 1.16 ± 0.026 and the NP40-soluble protein abundance (UTP14A; concentration: 4mM) was 1.24 ± 0.052. For the same molecule, the NP40-soluble protein abundance (UTP14A; concentration: 6mM) was 1.25 ± 0.044, the NP40-soluble protein abundance (UTP14A; concentration: 8mM) was 1.3 ± 0.08 and the NP40-soluble protein abundance (UTP14A; concentration: 10mM) was 1.4 ± 0.073. The NP40-soluble protein abundance (UniProt Q96KQ4; concentration: 0.1mM) was 0.953 ± 0.11, the NP40-soluble protein abundance (UniProt Q96KQ4; concentration: 0.5mM) was 0.97 ± 0.04 and the NP40-soluble protein abundance (UniProt Q96KQ4; concentration: 1mM) was 1.04 ± 0.067. For the same molecule, the NP40-soluble protein abundance (UniProt Q96KQ4; concentration: 2mM) was 0.99 ± 0.057, the NP40-soluble protein abundance (UniProt Q96KQ4; concentration: 4mM) was 1 ± 0.041 and the NP40-soluble protein abundance (UniProt Q96KQ4; concentration: 6mM) was 0.978 ± 0.029. It also gave an NP40-soluble protein abundance (UniProt Q96KQ4; concentration: 8mM) of 0.982 ± 0.045, an NP40-soluble protein abundance (UniProt Q96KQ4; concentration: 10mM) of 0.997 ± 0.059 and an NP40-soluble protein abundance (UniProt Q99733-2; concentration: 0.1mM) of 0.959 ± 0.053. For the same molecule, the NP40-soluble protein abundance (UniProt Q99733-2; concentration: 0.5mM) was 0.975 ± 0.049, the NP40-soluble protein abundance (UniProt Q99733-2; concentration: 1mM) was 0.98 ± 0.059 and the NP40-soluble protein abundance (UniProt Q99733-2; concentration: 2mM) was 0.941 ± 0.077. It also gave an NP40-soluble protein abundance (UniProt Q99733-2; concentration: 4mM) of 0.937 ± 0.07, an NP40-soluble protein abundance (UniProt Q99733-2; concentration: 6mM) of 0.959 ± 0.069 and an NP40-soluble protein abundance (UniProt Q99733-2; concentration: 8mM) of 0.971 ± 0.03. The NP40-soluble protein abundance (UniProt Q99733-2; concentration: 10mM) was 0.951 ± 0.051, the NP40-soluble protein abundance ([1]; concentration: 0.1mM) was 0.827 ± 0.091 and the NP40-soluble protein abundance ([1]; concentration: 0.5mM) was 0.79 ± 0.12. It also gave an NP40-soluble protein abundance ([1]; concentration: 1mM) of 0.929 ± 0.098, an NP40-soluble protein abundance ([1]; concentration: 2mM) of 0.872 ± 0.14 and an NP40-soluble protein abundance ([1]; concentration: 4mM) of 0.933 ± 0.22. For the same molecule, the NP40-soluble protein abundance ([1]; concentration: 6mM) was 0.884 ± 0.16, the NP40-soluble protein abundance ([1]; concentration: 8mM) was 0.854 ± 0.098 and the NP40-soluble protein abundance ([1]; concentration: 10mM) was 0.961 ± 0.14. It also gave an NP40-soluble protein abundance ([2]; concentration: 0.1mM) of 0.869 ± 0.037, an NP40-soluble protein abundance ([2]; concentration: 0.5mM) of 0.935 ± 0.08 and an NP40-soluble protein abundance ([2]; concentration: 1mM) of 0.836 ± 0.035. It also gave an NP40-soluble protein abundance ([2]; concentration: 2mM) of 0.837 ± 0.051.
